Our source for the binding values is article PMC7518614.

The chains behind the UniProt entries cited, without tags or fusion partners.
UniProt Q9CW03: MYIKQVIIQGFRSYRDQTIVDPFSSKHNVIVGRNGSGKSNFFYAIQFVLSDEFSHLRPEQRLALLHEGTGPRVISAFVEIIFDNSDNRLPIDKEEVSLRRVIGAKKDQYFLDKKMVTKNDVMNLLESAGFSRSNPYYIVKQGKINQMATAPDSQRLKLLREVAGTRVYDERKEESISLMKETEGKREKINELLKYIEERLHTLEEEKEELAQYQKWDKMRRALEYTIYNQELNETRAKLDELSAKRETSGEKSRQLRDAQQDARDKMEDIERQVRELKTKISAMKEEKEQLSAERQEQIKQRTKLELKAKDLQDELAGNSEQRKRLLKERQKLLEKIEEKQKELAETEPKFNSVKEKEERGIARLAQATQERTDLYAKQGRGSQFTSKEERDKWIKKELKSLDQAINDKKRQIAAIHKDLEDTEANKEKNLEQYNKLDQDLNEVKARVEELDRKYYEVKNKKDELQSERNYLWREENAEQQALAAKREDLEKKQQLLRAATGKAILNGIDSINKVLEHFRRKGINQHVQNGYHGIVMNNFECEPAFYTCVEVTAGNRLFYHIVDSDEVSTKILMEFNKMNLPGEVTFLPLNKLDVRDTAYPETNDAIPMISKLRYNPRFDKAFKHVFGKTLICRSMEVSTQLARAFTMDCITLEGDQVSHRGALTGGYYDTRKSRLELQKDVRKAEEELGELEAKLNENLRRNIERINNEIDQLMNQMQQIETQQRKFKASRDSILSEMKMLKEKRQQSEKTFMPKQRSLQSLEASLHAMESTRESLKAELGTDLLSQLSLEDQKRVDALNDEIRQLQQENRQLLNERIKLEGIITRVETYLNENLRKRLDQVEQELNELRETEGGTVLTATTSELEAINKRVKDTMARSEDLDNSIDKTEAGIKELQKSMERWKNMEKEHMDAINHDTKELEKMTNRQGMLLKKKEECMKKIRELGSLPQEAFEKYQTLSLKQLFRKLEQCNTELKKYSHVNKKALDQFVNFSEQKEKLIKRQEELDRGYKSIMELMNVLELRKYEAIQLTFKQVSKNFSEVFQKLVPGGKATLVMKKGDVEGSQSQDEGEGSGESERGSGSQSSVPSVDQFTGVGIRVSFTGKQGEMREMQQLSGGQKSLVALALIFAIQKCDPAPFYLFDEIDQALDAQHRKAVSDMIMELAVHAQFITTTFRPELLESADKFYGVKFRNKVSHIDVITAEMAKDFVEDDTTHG

No constants are given. Whether binding was seen depends on the method and setting. Binding seen in cells or lysates may run through a third protein. Some entries that bind do so weakly or less than the wild type. For some assays here: Where a sequence is shown, tags or fusion partners need not be part of it.

Experiment [1] deals with T1, HORMAD1 (mouse (endogenous in testis)) (UniProt Q9D5T7).
T1 sequence: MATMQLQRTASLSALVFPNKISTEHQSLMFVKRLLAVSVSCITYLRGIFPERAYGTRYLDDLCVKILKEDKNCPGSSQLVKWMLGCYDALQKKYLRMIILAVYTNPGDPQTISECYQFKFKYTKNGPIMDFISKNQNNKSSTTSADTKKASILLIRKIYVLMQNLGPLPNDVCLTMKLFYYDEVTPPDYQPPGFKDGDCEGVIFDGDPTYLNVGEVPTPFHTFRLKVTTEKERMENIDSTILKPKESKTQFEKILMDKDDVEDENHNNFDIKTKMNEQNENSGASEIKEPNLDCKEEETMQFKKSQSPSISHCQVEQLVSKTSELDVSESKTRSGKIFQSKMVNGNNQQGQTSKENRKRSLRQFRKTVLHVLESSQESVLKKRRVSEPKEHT
Kind of experiment: co-IP; IP with anti-HORMAD1 antibody from chromatin-bound mouse testis extracts, western blot of the immunoprecipitates; WT testes (Fig 1D), WT (10 dpp) and Sycp2-KO testes (Fig 3F). (In general: In western blotting, separated proteins are transferred to a membrane and probed.)

The target of experiment [2] is T1, HORMAD1 (mouse (endogenous in testis)). Description: proximity ligation; Duolink in situ PLA on spread chromatin of WT mouse spermatocytes; rabbit anti-HORMAD1 with mouse anti-RAD21L or anti-REC8; Hormad1-KO cells as negative control.

As for SMC3 (from UniProt Q9CW03 1-1217), in experiment [1], the binding entry was “binds”.

B1: STAG3 (protein, UniProt O70576 1-1240)
chain: MPTLWSPSTQHHGSSSGSESSPLQKSVRRAQMALSPCSSSILPCDDRDSQGTAEWDSPSTNEDSDFEDSLRRNVKKRAAKQPPKAVPAAKHRKKQSRIVSSGNGKNESVPSTNYLFDAVKAARSCMQSLVDEWLDNYKQDENAGFLELINFFIRACGCKSTVTPEMFKTMSNSEIIQHLTEEFNEDSGDYPLTAPGPSWKKFQGSFCEFVKTLVYQCQYSLLYDGFPMDDLISLLIGLSDSQVRAFRHTSTLAAMKLMTSLVKVALQLSLHKDNNQRQYEAERNKGPEQRAPERLESLLEKRKEFQENQEDIEGMMNAIFRGVFVHRYRDILPEIRAICIEEIGYWMQSYSTSFLNDSYLKYIGWTLHDKHKEVRLKCVKALAGLYSNQELSLRMELFTNRFKDRMVSMVMDRECEVAVEAIRLLTLILKNMEGVLTSADCEKIYSIVYISNRAMASSAGEFVYWKIFHPECGAKAVSDRERRRSPQAQKTFIYLLLAFFMESEHHNHAAYLVDSLWDCAGSYLKDWESLTNLLLQKDQNLGDMQERMLIEILVSSARQAAEGHPPVGRITGKKSLTAKERKLQAYDKMKLAEHLIPLLPQLLAKFSADAENVAPLLQLLSYFDLSIYCTQRLEKHLELLLQQLQEVVVKHVEPEVLEAAAHALYLLCKPEFTFFSRVDFARSQLVDFLTDRFQQELDDLMQSSFLDEDEVYSLTATLKRLSAFYNAHDLTRWEISEPCSRLLRKAVDTGEVPHQVILPALTLVYFSILWTVTHISESTSHKQLMSLKKRMVAFCELCQSCLSDVDPEIQEQAFVLLSDLLLIFSPQMIVGGRDFLRPLVFFPEATLQSELASFLMDHVFLQPGELGNGQSQEDHVQIELLHQRRRLLAGFCKLLLYGVLELDAASDVFKHYNKFYEDYGDIIKETLTRARQIDRCQCSRILLLSLKQLYTELIQEQGPQGLTELPAFIEMRDLARRFALSFGPQQLHNRDLVVMLHKEGIKFSLSELPPAGSSHEPPNLAFLELLSEFSPRLFHQDKRLLLSYLEKCLQRVSKAPNHPWGPVTTYCHSLHPLEITAEASPRGPPHSKKRCVEGPCRPQEEESSSQEESLQLNSGPTTPTLTSTAVKRKQSLRTVGKKQKGRPGPGPGPGPELICSQQLLGTQRLKMSSAPCFQIRCDPSGSGLGKQLTRLSLMEEDEEEELRLLDEEWQRGDKMLHSPSSPSEHGLDLLDTTELNMEDF
Turning to B1, in experiment [1], the binding result is given as “binds”.

B2: SMC1α (protein, UniProt Q9CU62 1-1233)
chain: MGFLKLIEIENFKSYKGRQIIGPFQRFTAIIGPNGSGKSNLMDAISFVLGEKTSNLRVKTLRDLIHGAPVGKPAANRAFVSMVYSEEGAEDRTFARVIVGGSSEYKINNKVVQLHEYSEELEKLGILIKARNFLVFQGAVESIAMKNPKERTALFEEISRSGELAQEYDKRKKEMVKAEEDTQFNYHRKKNIAAERKEAKQEKEEADRYQRLKDEVVRAQVQLQLFKLYHNEVEIEKLNKELASKNKEIEKDKKRMDKVEDELKEKKKELGKMMREQQQIEKEIKEKDSELNQKRPQYIKAKENTSHKIKKLEAAKKSLQNAQKHYKKRKGDMDELEKEMLSVEKARQEFEERMEEESQSQGRDLTLEENQVKKYHRLKEEASKRAATLAQELEKFNRDQKADQDRLDLEERKKVETEAKIKQKLREIEENQKRIEKLEEYITTSKQSLEEQKKLEGELTEEVEMAKRRIDEINKELNQVMEQLGDARIDRQESSRQQRKAEIMESIKRLYPGSVYGRLIDLCQPTQKKYQIAVTKVLGKNMDAIIVDSEKTGRDCIQYIKEQRGEPETFLPLDYLEVKPTDEKLRELKGAKLVIDVIRYEPPHIKKALQYACGNALVCDNVEDARRIAFGGHQRHKTVALDGTLFQKSGVISGGASDLKAKARRWDEKAVDKLKEKKERLTEELKEQMKAKRKEAELRQVQSQAHGLQMRLKYSQSDLEQTKTRHLALNLQEKSKLESELANFGPRINDIKRIIQSREREMKDLKEKMNQVEDEVFEEFCREIGVRNIREFEEEKVKRQNEIAKKRLEFENQKTRLGIQLDFEKNQLKEDQDKVHMWEQTVKKDENEIEKLKKEEQRHMKIIDETMAQLQDLKNQHLAKKSEVNDKNHEMEEIRKKLGGANKEMTHLQKEVTAIETKLEQKRSDRHNLLQACKMQDIKLPLSKGTMDDISQEEGSSQGEESVSGSQRTSSIYAREALIEIDYGDLCEDLKDAQAEEEIKQEMNTLQQKLNEQQSVLQRIAAPNMKAMEKLESVRDKFQETSDEFEAARKRAKKAKQAFEQIKKERFDRFNACFESVATNIDEIYKALSRNSSAQAFLGPENPEEPYLDGINYNCVAPGKRFRPMDNLSGGEKTVAALALLFAIHSYKPAPFFVLDEIDAALDNTNIGKVANYIKEQSTCNFQAIVISLKEEFYTKAESLIGVYPEQGDCVISKVLTFDLTKYPDANPNPNEQ
For the molecule B2, the binding result in experiment [1] is “binds”.

B3: REC8 (protein, UniProt Q8C5S7 1-591)
chain: MFYYPNVLQRHTGCFATIWLAATRGSRLVKREYLNVNVVKTCEEILNYVLVRVQPPVAGLPRPRFSLYLSAQLQIGVIRVYFQQCQYLVEDIQHILEHLHRAQLRIRIDMEEADLPSLLLPNCLAMMETLEDAPEPFFGKMSVDPRLPSPFDIPQIRHLLEAATPEKTRKETLPEATPDPRKPDRTLATVQSPEVITLQEAEPIRMLQIEGEQDLPEISRGDLELLIAEKDDAILLEERQRGRLLRQRRASLPLDESREEPRALEGAGLVSALSPPAPAQVEGIQEALPGQVFPPEVQKMTGWEPGALLTEVTPPQELRLPAPPSTEKRLPSLQRPLPRRHRRRQLLFWDKETQISREKFEEQLQTGAHCWEYPVAQPPKRMLTSPAELFRTPTLSGWLPPELLGLWTHCAQVPQRMLRQRPQLETEETVEEERAADEEERRKTEALSEIEVLREAQEPSGPLMLSSELSLEAAEDEKSRTSLIPPEWWAWSEEGQPEPPALPMLPELPEVPMEMPPRPELSSEAVLRAVALKLQANKELDFSSLVPPLSPRKLASRVFYLLLVLSTQKILLVEQQKPYGPLLIRPGPKFP
B3: the binding result in experiment [1] and in experiment [2] was “binds” in each case.
